Data as given in patent publication EP4692118A1.
Substitutions are numbered along the chain they refer to. These are yes or no findings as the source states them, for the method shown. Some entries that bind do so weakly or less than the wild type.

By UniProt entry, the sequences of proteins in these tests, tags left out. Residues count along the entry.
UniProt Q13443, residues 206-697: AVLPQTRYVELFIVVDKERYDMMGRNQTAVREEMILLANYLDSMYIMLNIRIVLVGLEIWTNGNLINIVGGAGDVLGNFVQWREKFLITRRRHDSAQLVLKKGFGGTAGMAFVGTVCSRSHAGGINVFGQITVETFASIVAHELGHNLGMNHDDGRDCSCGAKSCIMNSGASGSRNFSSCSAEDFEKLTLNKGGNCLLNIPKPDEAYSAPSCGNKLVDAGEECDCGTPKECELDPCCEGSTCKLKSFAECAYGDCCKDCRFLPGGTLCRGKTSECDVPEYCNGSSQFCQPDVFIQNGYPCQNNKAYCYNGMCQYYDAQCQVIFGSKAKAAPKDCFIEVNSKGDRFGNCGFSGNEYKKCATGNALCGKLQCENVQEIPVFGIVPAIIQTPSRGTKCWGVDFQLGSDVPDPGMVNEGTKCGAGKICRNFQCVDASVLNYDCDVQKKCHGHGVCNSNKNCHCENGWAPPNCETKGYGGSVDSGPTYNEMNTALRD

Columns and labels:
[1] = biological target: Human ADAM-His protein (ACROBiosystems, Cat. No. AD9-H52H7) (human) (UniProt Q13443); test: indirect ELISA
[2] = biological target: Human ADAM-His protein (ACROBiosystems, Cat. No. AD9-H52H7) (human) (UniProt Q13443); test: ELISA and Biacore
[3] = biological target: cynomolgus ADAM9 protein (ACRO, Cat. No. AD9-C52H7) (cynomolgus monkey); test: ELISA and Biacore

B1: Ab4 (antibody, human IgG1, kappa, V domains shown)
VH: QVQLQESGAEVKRPGSSVKVSCKASGFTFPLYWMNWVRQRPGRGLEWMGRIIPIFGHTKYNEKFKDRATMTRDKSSSTAYMELSSLTSDDSAVYYCARGGYYYYPREGFLDYWGQGTSVTVSS
VL: DIVMTQSPSSLSVSPGERATINCRSSQSVDYSGDSYMNWYQQKPGQAPRLLIYAASDLESGVPDRFSGSGSGTDFTLNINGVEEEDAATYYCQQSREDPFTFGQGTKVEIKR
binding [1]: binds

B2: Ab15 (antibody, human IgG1, kappa, V domains shown)
VH: B1 VH with E6Q, S7P, V11L, R13K, S16A, M48I, R72A, K74E, D89E
VL: B1 VL with S9D, A47S, L58R, N78K, N80S, G81N, K107R
binding [1]: binds | binding [2]: binds | binding [3]: binds
